Reference: PubChem BioAssay AID1347075 (National Center for Advancing Translational Sciences (NCATS), 2019)
“And” between values parts separate entries of the source, which are not always exact repeats. Equal entries are not always repeated. About 5,500 (1.4%) of roughly 400,000 compounds were called active. The inconclusive results got no clear call from the source; some entries with a clear call stand among them for comparison. The call rests on the fitted dose curve; in most records, active means well fitted cell-killing curve with a large enough effect; inconclusive means small, poorly fitted or top-dose-only effect, or effect the other way; inactive means flat fitted curve, though single readings scatter. Where the call is inconclusive, the potency comes from a doubtful curve fit.

Assay: qHTS assay for MDR1-selective chemotherapeutics: Primary screen using the parental adenocarcinoma cell KB-3-1; further: nearly all actives have a fitted effect of over 60% in size
Conditions: KB-3-1 viability, CellTiter-Glo ATP luminescence, 72 h; activity change, negative = cytotoxic: at 46.1 µM (top of the series)
How it was run: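 Viability of parental KB-3-1 cells, measured by CellTiter-Glo luminescence, followed a 72 h incubation at 37 °C with pinned compounds in phenol-red-free DMEM containing 10% FBS.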
On the % scale 0 is the no-effect control and ±100 the full control effect; potency means the concentration at half of the fitted maximal effect.

Structure (SMILES) | Potency | activity change, negative = cytotoxic
CCOCCCNCc1cn(-c2ccc(F)cc2F)nc1-c1ccccc1C | inactive | 
CCN(CC)c1ccc(C2C(C(=O)OC(C)C)C(=O)CC(C)(O)C2C(=O)OC(C)C)cc1 (stereo not given) | inactive | 
COc1cc(CSc2nnnn2-c2ccc(C)cc2)cc(OC)c1OC | active: 10.3 µM | 
CC(C)c1ccc(S(=O)(=O)c2cc3cc(Br)ccc3oc2=O)cc1 | inconclusive: 18.4 µM [cytotoxic, single point] | 
c1ccc(C(Cc2nc(-c3ccncc3)no2)c2ccccc2)cc1 | active: 11.6 µM | 
CC(C)C[C@H]1C(=O)N2CCC[C@H]2[C@]2(O)O[C@](NC(=O)C3C=C4c5cccc6[nH]c(Br)c(c56)C[C@H]4N(C)C3)(C(C)C)C(=O)N12 (stereo not given in full) | inconclusive: 29.1 µM [cytotoxic, single point] | 
Cc1ccc(Nc2nc(-c3cccnc3)nc3ccccc23)cc1 | inconclusive: 18.4 µM [cytotoxic, partial curve, poor fit] | 
COc1cccc(-c2nnc3sc(CN4CCCCC4)cn23)c1 | active: 2.59 µM | 
COc1ccccc1CN=C1NC(=O)C(CC(=O)Nc2ccc(OC)c(OC)c2)S1 (stereo not given) | inconclusive: 13 µM [rising, partial curve, poor fit] | 
O=c1cc(-c2ccccc2Cl)oc2ccc([N+](=O)[O-])c(O)c12 | inactive | 
Cc1nnc(Sc2cc(NCCCO)c([N+](=O)[O-])c3nonc23)s1 | inactive | 
O=C(c1cccc(Cl)c1)N1CCN(c2ccc3c(c2)C2CC3CCN2C(=O)OCc2ccccc2)CC1 (stereo not given) | inconclusive: 29.1 µM [cytotoxic, single point] | 
Cc1ccc(-c2[nH]c3ccccc3c2SCCNC(=O)c2cc3ccccc3oc2=O)cc1 | inconclusive: 29.1 µM [cytotoxic, single point] | 
Cc1ccc(N=C2C(=S)N(c3ccc(C)cc3)C(=N)N2/N=C/c2ccc(Cl)cc2)cc1 | inconclusive: 29.1 µM [cytotoxic, single point] | 
Cc1ccc(NC(=O)c2ccc3c(c2)OCCO3)cc1S(=O)(=O)Nc1cccc(Cl)c1 | inconclusive: 29.1 µM [cytotoxic, single point] | 
COC(=O)N/N=C/c1ccc(OCCSc2ccc(Cl)cc2)c(OC)c1 | inconclusive: 0.184 µM [rising, full curve] | 
O=C1Nc2ccccc2C1Cc1ccccc1 (stereo not given) | inactive | 
O=C(c1ccccc1)c1cn[nH]c1-c1ccccc1O | inactive | 
COc1ccc(CNC(=O)C[C@@H]2C[C@H]3c4cc(NC(=O)NC5CCCC5)ccc4O[C@H]3[C@H](CO)O2)cc1 | inconclusive: 23.1 µM [cytotoxic, partial curve, poor fit] | 
CC(=O)NC1CC2CCCC(C1)N2C(=O)Nc1ccc(Cl)cc1 (stereo not given) | inactive | 
CCN(CC)c1ccc(C=Nc2cc(C)ccc2C)c(O)c1 | inconclusive: 20.6 µM [cytotoxic, single point] | 
Cc1ccc(C)c(N2CCN(C(=O)c3nn(C)c4c3CS(=O)(=O)c3ccccc3-4)CC2)c1 | inconclusive: 32.6 µM [cytotoxic, single point] and inconclusive: 29.1 µM [cytotoxic, single point] | 
Clc1ccc(-c2noc(-c3cccnc3N3CCN(c4ccccc4)CC3)n2)cc1 | inactive | 
O=C(c1nn2c(C(F)(F)F)cc(-c3cccs3)nc2c1Cl)N1CCCc2ccccc21 | inconclusive: 18.4 µM [cytotoxic, partial curve] | 

Structure (SMILES) | Potency | activity change, negative = cytotoxic
CC(C)/C(=N\NC(=O)Nc1ccccc1)c1ccccc1 | inconclusive: 23.1 µM [cytotoxic, single point] | 
CCn1ncc(Br)c1C(=O)Nc1ccccc1OC | active: 13 µM | 
CC1=C(SCc2ccccc2)C(=O)c2ccccc2C1=O | inconclusive: 29.1 µM [cytotoxic, single point] | 
Oc1cc(NCc2cccnc2)ccc1-c1nc2ccccc2o1 | inconclusive: 25.9 µM [cytotoxic, single point] | 
O=C1c2cccc3cccc(c23)C(=O)N1CCc1ccccc1 | inconclusive: 23.1 µM [cytotoxic, single point] | 
Fc1ccc(Nc2c(-c3ccco3)nc3ccccn23)cc1 | inactive | 
COc1ccc(OC)c(CN2C(=O)c3ccccc3C2c2nnnn2-c2ccc3c(c2)OCCO3)c1 (stereo not given) | active: 4.61 µM | 
Cn1c(N)c(C(=O)COC(=O)C2CCCC2)c(=O)n(C)c1=O | inconclusive: 23.1 µM [rising, partial curve, poor fit] | 
O=S(Cc1ccc(Cl)cc1)c1ncc(CO)n1Cc1ccccc1 (stereo not given) | active: 16.4 µM | 
CC(C)(C)c1ccc(C(=O)N2CCN(Cc3cc(=O)n4nc(-c5ccccc5F)sc4n3)CC2)cc1 | inactive | 
CC(C)(C)OC(=O)[C@H](Cc1ccccc1)NC(=O)c1nc[nH]c1C(=O)NCC(=O)OCc1ccccc1 | inconclusive: 32.6 µM [rising, single point] | 
Nc1[nH]n(-c2ccccc2)c(=O)c1N=Nc1ccc2c(c1)OCO2 | inconclusive: 20.6 µM [cytotoxic, single point] | 
CCOc1ccc(C2/C(=C(\O)c3cccc(OC)c3)C(=O)C(=O)N2c2ccccn2)cc1OC (stereo not given) | inactive | 
Cc1ccc(NC(=O)C(=O)NCCN2CCN(C(=O)C(c3ccccc3)c3ccccc3)CC2)cc1 | inconclusive: 16.4 µM [cytotoxic, single point] | 
COc1cc(OC)c(NC(=O)Cn2cnc3nc4c(cc3c2=O)CCCC4)cc1Cl | inactive | 
O=C(CSc1ccccn1)Nc1ccc2c(c1)C(=O)c1ccccc1C2=O | inactive | 
O=C(c1ccc(Cl)c(Cl)c1)N1CCC(=O)N([C@H](COCc2cccc(C(F)(F)F)c2)Cc2ccccc2)CC1 | inconclusive: 16.4 µM [cytotoxic, single point] | 
CCOc1ccccc1NC(=O)C(c1ccccc1)N1CCN(C(=O)c2ccco2)CC1 (stereo not given) |  | inconclusive: -7.07%
Cc1cc2ccccc2n1CCNC(=O)c1cccc(Cl)c1 | inactive | 
CC(=O)N/N=C(\C)c1ccc(Br)cc1Br | inconclusive: 16.4 µM [cytotoxic, single point] | 
O=S(=O)(c1cccc(Br)c1)N1CCN(c2nc(-c3cccs3)nc3ccccc23)CC1 | inactive | 
CCN(CC)c1ccc(/C=C2\NC(=O)NC2=O)cc1 | inconclusive: 18.4 µM [cytotoxic, single point] | 
COC(=O)c1c(NC(=O)CSc2nnnn2-c2ccccc2)sc2c1CCC(C)C2 (stereo not given) | inactive | 
CN(C)CCCN1C(=O)c2cccc3c(Br)ccc(c23)C1=O | inconclusive: 18.4 µM [cytotoxic, single point] | 

Random excerpt: 5 records from the list
Structure (SMILES) | Potency | activity change, negative = cytotoxic
O=C(CSc1ccccn1)Nc1ccc2c(c1)C(=O)c1ccccc1C2=O | inactive | 
O=C(c1ccc(Cl)c(Cl)c1)N1CCC(=O)N([C@H](COCc2cccc(C(F)(F)F)c2)Cc2ccccc2)CC1 | inconclusive: 16.4 µM [cytotoxic, single point] | 
Oc1cc(NCc2cccnc2)ccc1-c1nc2ccccc2o1 | inconclusive: 25.9 µM [cytotoxic, single point] | 
CC(C)/C(=N\NC(=O)Nc1ccccc1)c1ccccc1 | inconclusive: 23.1 µM [cytotoxic, single point] | 
CCOc1ccc(C2/C(=C(\O)c3cccc(OC)c3)C(=O)C(=O)N2c2ccccn2)cc1OC (stereo not given) | inactive | 

Further compounds

Structure (SMILES) | Potency | activity change, negative = cytotoxic
Cc1ccc([C@H]2C[C@@H](n3cc(COC(=O)c4ccccc4)nn3)[C@H](O)CN2C(=O)C2CCCCC2)cc1 |  | inconclusive: -1.87%
CC(C)(C)C(=O)NC(=S)Nc1sc2c(c1C(N)=O)CCC2 | inconclusive: 0.0326 µM [cytotoxic, full curve] | 
CC(C)c1ccc(NC(=O)c2cc(S(=O)(=O)NCc3ccccc3Cl)ccc2F)cc1 | inconclusive: 18.4 µM [cytotoxic, single point] | 
CN(CCc1ccccc1)C(=O)c1ccc(NC(=O)Cc2ccc(NC(=O)C3CCN(S(=O)(=O)c4cccc([N+](=O)[O-])c4)CC3)cc2)cc1 | inconclusive: 8.2 µM [cytotoxic, partial curve] | 
COc1cccc(CC(NC(C)=O)C(=O)NC2CCN(C(=O)c3ccncc3)CC2)c1OC (stereo not given) | inactive | 
CCCNC(=O)CSc1ccc(S(=O)(=O)N(C)C2CCCCC2)cn1 | inactive | 
COc1cc(/C=N/n2cnnc2)ccc1Oc1nc(Cl)ncc1F | inconclusive: 29.1 µM [rising, single point] | 
Cc1ccc(S(=O)(=O)N2CCN(c3ccc(C(F)(F)F)cc3[N+](=O)[O-])CC2)cc1 | inconclusive: 29.1 µM [cytotoxic, single point] | 
COC(=O)c1c(CCl)noc1C(=O)NC(C)C | inconclusive: 29.1 µM [cytotoxic, single point] | 
COC(=O)c1ccc([N+](=O)[O-])c(CS(=O)(=O)c2ccc(Cl)cc2)c1 | inactive | 
Cc1ccccc1OCC(O)CN(Cc1ccccc1O)C1CCCCC1 (stereo not given) | inconclusive: 16.4 µM [cytotoxic, single point] | 
COc1cc(/C=C/c2cc[n+](C)cc2)ccc1OCC(=O)Nc1ccccc1 | inactive | 
OC(CN1CCN(c2ccccc2)CC1)Cn1c2ccccc2c2ccccc21 (stereo not given) | inconclusive: 18.4 µM [cytotoxic, single point] | 
Cc1ccccc1OCCCCCNCCO | inactive | 
O=C1c2cnc3nc(SCc4ccccc4)nn3c2CC2c3ccccc3CCN12 (stereo not given) | inactive | 
Cc1cccc(NC(=O)c2cc3n(n2)C(C(F)(F)F)CC(C2CC2)N3)c1C (stereo not given) | inactive | 
Cc1ccn2c(Cc3ccccc3)c(-c3ccc(Br)cc3)nc2c1 | inconclusive: 14.6 µM [cytotoxic, partial curve, poor fit] | 
CN(C)CCNc1ncnc2c1sc1nc(N3CCOCC3)c3c(c12)CC(C)(C)SC3 | inconclusive: 29.1 µM [cytotoxic, single point] | 
O=S(=O)(c1ccccc1F)N1CCN(c2nc(-c3cccs3)nc3ccccc23)CC1 | inconclusive: 29.1 µM [rising, single point] | 
COc1ccc(CC(=O)NCC2CCCN(Cc3cc(OC)cc(OC)c3)C2)cc1 (stereo not given) | inactive | 
COCCNC(=O)C(c1ccc(F)cc1)N(Cc1ccco1)C(=O)CCC(=O)Nc1ccccn1 (stereo not given) | inconclusive: 23.1 µM [rising, partial curve, poor fit] | 
O=C(C1CCC(Cn2c(=O)c3sccc3n(Cc3cccc(F)c3)c2=O)CC1)N1CCCCC1 (stereo not given) | inconclusive: 29.1 µM [cytotoxic, single point] | 
